Experimental data: patent US9504729B2, “Antiangiogenic small molecules and methods of use” (The United States of America, as represented by the …, priority 2009, dated 2016)
Entries after “also recorded” stand apart in the source; their conditions may differ. Some entries share one result that the patent states for a list of compounds. At least one structure is not confirmed: it was looked up by name or label, or the drawing left a doubt.

Legend:
[1] = system: endothelial cells (PAE, BEC); assay: Growth HTS, fluorescent endothelial cells; assay type: cell-based, porcine; human; conditions: 1 μM
[2] = system: tumor cells (A549, MCF7); assay: Growth HTS, tumor cells compared with endothelial cells; assay type: cell-based, human; conditions: 1 μM, PAE, BEC

Row | SMILES | endothelial cell growth inhibition [1] | growth inhibitory activity in tumor cells vs endothelial cells [2] | growth inhibitory activity in tumor cells vs endothelial cells ([2]; listed as compound 76) | growth inhibitory activity in tumor cells vs endothelial cells ([2]; listed as compound 75) | growth inhibitory activity in tumor cells vs endothelial cells ([2]; hydrochloride)
1 | CC1(C)N=C(N)N=C(N)N1c1cccc(OCc2cccc([N+](=O)[O-])c2)c1.Cl [Compound 23, 6,6-dimethyl-1-[3-[(3-nitrophenyl)methoxy]-phenyl]-1,3,5-triazine-2,4-diamine chloride] | endothelial cell growth inhibitors | inhibit the growth of both endothelial cells and tumor cells; also recorded: inhibitory activity in both tumor cells and endothelial cells | – | – | –
2 | COc1cc2ccccc2c2cc([N+](=O)[O-])oc12 [Compound 1, 4-methoxy-2-nitrobenzo[e][1]benzofuran] | endothelial cell growth inhibitors | inhibit the growth of both endothelial cells and tumor cells; also recorded: inhibitory activity in both tumor cells and endothelial cells | – | – | –
3 | CC(NNC(=O)c1ccncc1)=C1C=Cc2ccccc2C1=O [Compound 76, N′-[1-(1-oxonaphthalen-2-ylidene)ethyl]pyridine-4-carbohydrazide] | – | inhibit the growth of tumor cells but not endothelial cells; also recorded: specifically inhibit tumor growth, but not endothelial cell growth | specific tumor cell growth inhibitors | – | –
4 | Oc1ccc(CNCc2ccccc2)c2cccnc12 [Compound 75, 5-[(benzylamino)methyl]quinolin-8-ol] | – | inhibit the growth of tumor cells but not endothelial cells; also recorded: specifically inhibit tumor growth, but not endothelial cell growth | – | specific tumor cell growth inhibitors | –
5 | CCCC(c1cc(C(C)(C)C)c(O)cc1C)c1cc(C(C)(C)C)c(O)cc1C [Compound 24, 2-tert-butyl-4-[1-(5-tert-butyl-4-hydroxy-2-methylphenyl)butyl]-5-methylphenol] | endothelial cell growth inhibitors | inhibit the growth of both endothelial cells and tumor cells; also recorded: inhibitory activity in both tumor cells and endothelial cells | – | – | –
6 | Cc1cc(O)c(C(C)C)cc1C1(c2cc(C(C)C)c(O)cc2C)OC(=O)c2ccccc21 [Compound 19, 3,3-bis(4-hydroxy-2-methyl-5-propan-2-ylphenyl)-2-benzofuran-1-one] | endothelial cell growth inhibitors | inhibit the growth of both endothelial cells and tumor cells; also recorded: inhibitory activity in both tumor cells and endothelial cells | – | – | –
7 | COc1ccc(C(=O)CCN(C)C)c2ccccc12.Cl [Compound 5, 3-(dimethylamino)-1-(4-methoxynaphthalen-1-yl)propan-1-one chloride] | endothelial cell growth inhibitors | inhibit the growth of both endothelial cells and tumor cells; also recorded: inhibitory activity in both tumor cells and endothelial cells | – | – | –
8 | FC(F)(F)c1cccc(-c2nc3nc(Cl)c(Cl)nc3[nH]2)c1 [Compound 12, 5,6-dichloro-2-[3-(trifluoromethyl)phenyl]-1H-imidazo[4,5-b]pyrazine] | endothelial cell growth inhibitors | inhibit the growth of both endothelial cells and tumor cells; also recorded: inhibitory activity in both tumor cells and endothelial cells | – | – | –
9 | Clc1ccc2c(NCCNc3ccnc4cc(Cl)ccc34)ccnc2c1 [Compound 16, N,N′-bis(7-chloroquinolin-4-yl)ethane-1,2-diamine] | endothelial cell growth inhibitors | inhibit the growth of both endothelial cells and tumor cells; also recorded: inhibitory activity in both tumor cells and endothelial cells | – | – | –
10 | C(=N\c1ccc2c(c1)Cc1ccccc1-2)/c1ccccn1 [Compound 3, N-(9H-fluoren-2-yl)-1-pyridin-2-ylmethanimine] | endothelial cell growth inhibitors | inhibit the growth of both endothelial cells and tumor cells; also recorded: inhibitory activity in both tumor cells and endothelial cells | – | – | –
11 | C[C@H]1CCC/C=C/[C@@H]2C[C@H](OC(=O)CN(C)C)C[C@H]2[C@H](O)/C=C/C(=O)O1 [Compound 18, [(1R,2R,3E,7S,11E,13S,15S)-2-hydroxy-7-methyl-5-oxo-6-oxabicyclo[11.3.0]hexadeca-3,11-dien-15-yl]2-(dimethylamino)acetate] | endothelial cell growth inhibitors | inhibit the growth of both endothelial cells and tumor cells; also recorded: inhibitory activity in both tumor cells and endothelial cells | – | – | –
12 | Nc1ncnc2c(C3OC(CO)C(O)C3O)nsc12 (stereo not shown) [Compound 7, 2-(7-amino-[1,2]thiazolo[4,5-d]pyrimidin-3-yl)-5-(hydroxymethyl)oxolane-3,4-diol] | endothelial cell growth inhibitors | inhibit the growth of both endothelial cells and tumor cells; also recorded: inhibitory activity in both tumor cells and endothelial cells | – | – | –
13 | CS(=O)(=O)Nc1ccc(Nc2c3ccccc3nc3ccccc23)cc1.CS(=O)(=O)O [Compound 32, N-[4-(acridin-9-ylamino)phenyl]-methanesulfonamide; methanesulfonic acid] | endothelial cell growth inhibitors | inhibit the growth of both endothelial cells and tumor cells; also recorded: inhibitory activity in both tumor cells and endothelial cells | – | – | –
14 | CN1CCN(c2ccc([N+](=O)[O-])c3no[n+]([O-])c23)CC1 [Compound 9, 7-(4-methylpiperazin-1-yl)-4-nitro-1-oxido-2,1,3-benzoxadiazol-1-ium] | endothelial cell growth inhibitors | inhibit the growth of both endothelial cells and tumor cells; also recorded: inhibitory activity in both tumor cells and endothelial cells | – | – | –
15 | CC1(C)N=C(N)N=C(N)N1c1cccc(CSc2ccccc2)c1.Cl [Compound 21, 6,6-dimethyl-1-[3-(phenylsulfanylmethyl)-phenyl]-1,3,5-triazine-2,4-diamine hydrochloride] | endothelial cell growth inhibitors | – | – | – | inhibit the growth of both endothelial cells and tumor cells; also recorded: inhibitory activity in both tumor cells and endothelial cells
16 | O=C1c2ccccc2-c2cc([N+](=O)[O-])c([N+](=O)[O-])cc21 [Compound 6, 2,3-dinitrofluoren-9-one] | endothelial cell growth inhibitors | inhibit the growth of both endothelial cells and tumor cells; also recorded: inhibitory activity in both tumor cells and endothelial cells | – | – | –
17 | O=C1C(=Cc2cccnc2)SC(=S)N1Cc1ccco1 [Compound 14, 3-(furan-2-ylmethyl)-5-(pyridin-3-ylmethylidene)-2-sulfanylidene-1,3-thiazolidin-4-one] | endothelial cell growth inhibitors | inhibit the growth of both endothelial cells and tumor cells; also recorded: inhibitory activity in both tumor cells and endothelial cells | – | – | –
18 | Cc1cc(OCc2nc(N)nc(N)c2-c2ccc(Cl)c(Cl)c2)ccc1[N+](=O)[O-] [Compound 22, 5-(3,4-dichlorophenyl)-6-[(3-methyl-4-nitrophenoxy)methyl]pyrimidine-2,4-diamine] | endothelial cell growth inhibitors | inhibit the growth of both endothelial cells and tumor cells; also recorded: inhibitory activity in both tumor cells and endothelial cells | – | – | –
19 | CC(=O)O/C(=C1\C[C@H]2[C@@H]3CC=C4C[C@@H](OC(C)=O)CC[C@]4(C)[C@H]3CC[C@]2(C)C1=O)C(F)(F)F [Compound 31, [(3S,8R,9S,10R,13S,14S,16E)-16-(1-acetyloxy-2,2,2-trifluoroethylidene)-10,13-dimethyl-17-oxo-2,3,4,7,8,9,11,12,14,15-decahydro-1H-cyclopenta[a]phenanthren-3-yl]acetate] | endothelial cell growth inhibitors | inhibit the growth of both endothelial cells and tumor cells; also recorded: inhibitory activity in both tumor cells and endothelial cells | – | – | –
20 | Nc1ccn(C2OC(COP(=O)(O)O)C(O)C2O)c(=O)n1 (stereo not shown) [Compound 10, [5-(4-amino-2-oxopyrimidin-1-yl)-3,4-dihydroxyoxolan-2-yl]methyl dihydrogen phosphate] | endothelial cell growth inhibitors | inhibit the growth of both endothelial cells and tumor cells; also recorded: inhibitory activity in both tumor cells and endothelial cells | – | – | –
21 | O=C(c1ccc([N+](=O)[O-])cc1)C(Br)C(Br)c1ccnc2ccccc12 (stereo not shown) [Compound 29, 2,3-dibromo-1-(4-nitrophenyl)-3-quinolin-4-ylpropan-1-one] | endothelial cell growth inhibitors | inhibit the growth of both endothelial cells and tumor cells; also recorded: inhibitory activity in both tumor cells and endothelial cells | – | – | –
22 | OC(c1cc(-c2ccc(Cl)cc2)nc2ccccc12)C1CCCCN1 (stereo not shown) [Compound 15, [2-(4-chlorophenyl)quinolin-4-yl]-piperidin-2-ylmethanol] | endothelial cell growth inhibitors | inhibit the growth of both endothelial cells and tumor cells; also recorded: inhibitory activity in both tumor cells and endothelial cells | – | – | –
23 | Oc1ccc(Cl)cc1Cc1cc(Cl)cc(Cc2cc(Cl)ccc2O)c1O [Compound 25, 4-chloro-2,6-bis[(5-chloro-2-hydroxyphenyl)methyl]phenol] | endothelial cell growth inhibitors | inhibit the growth of both endothelial cells and tumor cells; also recorded: inhibitory activity in both tumor cells and endothelial cells | – | – | –
